# According to the supplement of paper PMC8256030:
# Where “and” joins values, the source holds several entries; their conditions need not be identical. Equal entries are not always repeated. Structures can show the parent of a compound that is named as a salt. This is one part of the list. This data set is noisy: repeats of one test often differ as much as different tests do.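 HEK293T cells were given each compound shortly before transfection with a reporter in which red mCherry is followed by the SARS-CoV-2 frameshift element and then GFP in the −1 frame, so GFP appears only after frameshifting.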
# System: HEK293T
# Test: percent viability (nuclei count) relative to control; higher = more viable cells
# Conditions: 10 µM; 24 h
row,Structure (SMILES),percent viability
1,Cc1ccc(O)c2ncccc12 [tiliquinol],179%
2,O=C(O)c1c(O)c(-c2ccccc2)nc2ccccc12 [oxycinchophen],118%
3,CCOC(=O)[C@H](CCc1ccccc1)N[C@@H](C)C(=O)N1[C@H](C(=O)O)C[C@H]2CCCC[C@@H]21 [trandolapril],233% and 146%
4,Cc1cc(NC(=O)C2=C(O)c3ccccc3S(=O)(=O)N2C)no1 [isoxicam],71.6%
5,C[C@H]1C[C@H]2[C@@H]3CCC4=CC(=O)C=C[C@]4(C)[C@@]3(F)[C@@H](O)C[C@]2(C)[C@@]1(O)C(=O)COP(=O)(O)O,203%
6,CC(C)n1c(/C=C/C(O)CC(O)CC(=O)O)c(-c2ccc(F)cc2)c2ccccc21 (stereo unspecified) [Fluvastatin],52.7%
7,NC[C@H]1CC[C@H](C(=O)O)CC1 [tranexamic acid],105%
8,COc1ccc2[nH]cc(CCNC(C)=O)c2c1 [Melatonin],341%
9,CC1(C)O[C@@H]2C[C@H]3[C@@H]4C[C@H](F)C5=CC(=O)C=C[C@]5(C)[C@H]4[C@@H](O)C[C@]3(C)[C@]2(C(=O)CO)O1,274%
10,c1ccc(CN(CCN2CCCC2)c2ccccc2)cc1 [histapyrrodine],291%
11,Cc1[nH]c(=O)c(C#N)cc1-c1ccncc1 [milrinone],168% and 234%
12,N#Cc1ccc(C2CCCc3cncn32)cc1 (stereo unspecified) [fadrozole],216%
13,OCC(S)CS (stereo unspecified) [dimercaprol],143%
14,COc1cc2c(cc1OC)C(=O)C(CC1CCN(Cc3ccccc3)CC1)C2 (stereo unspecified) [Donepezil·HCl],239%
15,CC1=C(/C=C/C(C)=C/C=C/C(C)=C\C(=O)O)C(C)(C)CCC1 [isotretinoin],204%
16,Cc1nc2ccccc2n1Cc1ccc(Cl)cc1 [chlormidazole],58.4%
17,O=C(c1ccc(OCCN2CCCCC2)cc1)c1c(-c2ccc(O)cc2)sc2cc(O)ccc12 [raloxifene],330% and 383%
18,CC[C@H]1OC(=O)[C@H](C)[C@@H](O[C@H]2C[C@@](C)(OC)[C@@H](O)[C@H](C)O2)[C@H](C)[C@@H](O[C@@H]2O[C@H](C)C[C@H](N(C)C)[C@H]2O)[C@](C)(O)C[C@@H](C)C(=O)[C@H](C)[C@@H](O)[C@]1(C)O [erythromycin],228% and 211%
19,Nc1nc(N)c2nc(-c3ccccc3)c(N)nc2n1 [triamterene],141%
20,N/N=c1/ccc(C(N)=O)n[nH]1 [hydracarbazine],153%
21,Cc1ccccc1C(=O)Nc1ccc(C(=O)N2CCCC(N(C)C)c3ccccc32)cc1 (stereo unspecified) [mozavaptan],22.7%
22,C/N=C(/NC)NCc1ccc(OC)cc1 [meobentine],196%
23,O=C(O)CCc1nc2ccccc2[nH]1 [procodazole],60.1%
24,Cc1c(-c2ccccc2)oc2c(C(=O)OCCN3CCCCC3)cccc2c1=O [flavoxate],185%
25,CCC(C)CCCCC(=O)NC(CCN)C(=O)NC(C(=O)NC(CCN)C(=O)NC1CCNC(=O)C(C(C)O)NC(=O)C(CCN)NC(=O)C(CCN)NC(=O)C(CC(C)C)NC(=O)C(Cc2ccccc2)NC(=O)C(CCN)NC1=O)C(C)O (stereo unspecified),148%
26,C[C@]1(Cn2ccnn2)[C@H](C(=O)O)N2C(=O)C[C@H]2S1(=O)=O [tazobactam],187%

# Ordered by count of non-hydrogen atoms (low to high): part of the list above.
row,Structure (SMILES),percent viability
20,N/N=c1/ccc(C(N)=O)n[nH]1 [hydracarbazine],153%
4,Cc1cc(NC(=O)C2=C(O)c3ccccc3S(=O)(=O)N2C)no1 [isoxicam],71.6%
14,COc1cc2c(cc1OC)C(=O)C(CC1CCN(Cc3ccccc3)CC1)C2 (stereo unspecified) [Donepezil·HCl],239%
